# In PMC8131606:
# Amino acid sequences for entries named in this document (tags omitted). Residues count along the entry.
# UniProt P31421, residues 19-872: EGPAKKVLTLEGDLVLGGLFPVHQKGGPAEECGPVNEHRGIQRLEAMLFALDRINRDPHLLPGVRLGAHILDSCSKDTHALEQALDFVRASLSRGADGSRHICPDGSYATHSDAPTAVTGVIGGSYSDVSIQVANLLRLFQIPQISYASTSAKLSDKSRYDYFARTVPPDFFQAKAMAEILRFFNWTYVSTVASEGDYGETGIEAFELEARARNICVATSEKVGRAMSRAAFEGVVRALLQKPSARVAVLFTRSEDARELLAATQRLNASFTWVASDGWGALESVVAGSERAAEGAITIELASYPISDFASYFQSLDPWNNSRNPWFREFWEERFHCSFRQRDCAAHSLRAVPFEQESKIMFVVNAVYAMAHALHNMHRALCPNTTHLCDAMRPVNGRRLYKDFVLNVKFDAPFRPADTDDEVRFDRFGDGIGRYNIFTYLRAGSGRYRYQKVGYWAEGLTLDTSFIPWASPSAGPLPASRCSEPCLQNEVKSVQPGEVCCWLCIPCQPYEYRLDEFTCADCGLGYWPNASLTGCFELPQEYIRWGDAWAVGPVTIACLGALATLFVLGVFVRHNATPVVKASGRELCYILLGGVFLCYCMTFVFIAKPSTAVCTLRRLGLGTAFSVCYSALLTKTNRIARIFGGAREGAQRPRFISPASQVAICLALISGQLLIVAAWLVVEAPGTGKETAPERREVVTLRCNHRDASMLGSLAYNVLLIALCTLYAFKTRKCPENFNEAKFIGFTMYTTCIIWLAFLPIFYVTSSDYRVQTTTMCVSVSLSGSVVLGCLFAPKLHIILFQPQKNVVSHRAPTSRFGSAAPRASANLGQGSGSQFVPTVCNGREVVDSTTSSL
# Results are given in words; binding and its absence hold for the method and conditions named. Binding seen in cells or lysates may run through a third protein. Some entries that bind do so weakly or less than the wild type.
# Target: HA-SNAP-tagged metabotropic glutamate receptor 2 (UniProt P31421)
# Experiment: FRET or BRET; N-terminal HA-SNAP constructs on HEK293T cells, surface population labelled with membrane-impermeant SBG-JF549 and SBG-JF646 (1:3); donor recovery after acceptor bleaching
substance,measurement,value
HA-SNAP-tagged metabotropic glutamate receptor 2 (from UniProt P31421 19-872),binding,binds
